Laboratory results taken from PMC4726468.

What was measured:
GmSOC1-6xHis = GmSOC1-6xHis (UniProt A0A2K7FY55); assay: EMSA; details: DIG Gel Shift Kit (Roche 3353591910), manufacturer's instructions; pH and temperature not stated; recombinant protein; protein details: 6xHis (pET-DEST42); label: digoxigenin
Dt2-6xHis = target: T1, Dt2-6xHis (UniProt I1N4Q7); assay: EMSA; details: DIG Gel Shift Kit (Roche 3353591910), manufacturer's instructions; pH and temperature not stated; recombinant protein; protein details: 6xHis (pET-DEST42); label: digoxigenin
T1 sequence (looked up, limits assumed): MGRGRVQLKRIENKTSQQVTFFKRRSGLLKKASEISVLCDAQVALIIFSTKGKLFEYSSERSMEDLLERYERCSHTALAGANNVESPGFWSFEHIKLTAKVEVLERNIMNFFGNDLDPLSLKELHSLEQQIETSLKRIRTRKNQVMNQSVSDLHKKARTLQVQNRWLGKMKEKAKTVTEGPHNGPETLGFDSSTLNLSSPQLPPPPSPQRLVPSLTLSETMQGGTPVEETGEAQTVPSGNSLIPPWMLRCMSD

Row | Sequence | binding result (GmSOC1-6xHis) | binding result (Dt2-6xHis)
1 | AATATCCAAATTTAGAAATATG (double strand) [Dt1-CArG1] | no binding | –
2 | TTTCTCCAACAAAAGAATGCAAAC (double strand) [Dt1-CArG4] | no binding | no binding
3 | CTTATACCAAAATAAGCAACTAAC (double strand) [Dt1-CArG2] | no binding | –
4 | CCACCACCAATTAGGGCTTTTTTA (double strand) [Dt1-CArG3] | no binding | no binding
5 | GATGAGCCGAATTAAGAGACAA (double strand) [Dt1-CArG6] | – | no binding

Negatives hold for the conditions tested. At least one verdict was read from the data and is not stated in words by the source. For some of these results: Construct, isoform or probe ends are uncertain for at least one entry. For some of these results: Where a protein sequence is shown, tags need not be part of it.
